In PubChem BioAssay AID2685 (National Center for Advancing Translational Sciences (NCATS), 2010):
The other results are listed elsewhere or left out. Shown are side measurements of this screen, not its main read-out; they come without a call. Compounds called inactive in the main read-out are mostly missing here. Potencies come from curve fits of mixed quality, noted in brackets.

Test: qHTS Assay for Lipid Storage Modulators in Drosophila S3 Cells;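 for cell number change: cells counted by Cell Tracker Red CMTPX staining in the red channel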
Conditions: BODIPY lipid droplet fluorescence, 18-24 h; for cell number change: measured here: cell count max response, cells fed with added oleic acid
How it was run: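 Laser-scanning cytometry quantifies lipid droplet accumulation (500–530 nm total intensity; droplet/cell object ratio) in oleic acid-fed (400 uM added) Drosophila S3 cells treated with a concentration series. 20 uM Triacsin C defined 100% inhibition.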

[1] = measured here: lipid fluorescence (Fed channel) AC50, cells fed with added oleic acid
[2] = measured here: cell number channel AC50, cells fed with added oleic acid

Row | SMILES | cell number change [%] | AC50 [1] | AC50 [2]
1 | O=C(c1cc2n(n1)C(C(F)(F)F)CC(c1ccc(F)cc1)N2)N1CCCC1 (stereo unspecified) | 13.5 | – | –
2 | Cc1cccc(C(=O)NCCNC(=O)c2ccco2)c1 | 12.4 | – | –
3 | CCOCCn1c(SCCc2ccccc2)nc2c1c(=O)[nH]c(=O)n2C | 45.6 | – | –
4 | O=C(COC(=O)c1ccc(Cl)c(S(=O)(=O)N2CCOCC2)c1)Nc1ccc2[nH]c(=O)[nH]c2c1 | 5.16 | 29.1 µM [rising, single point] | –
5 | Cc1cc(/C(N)=N/OC(=O)c2ccc(Cl)cc2)no1 | -5 | – | –
6 | O=C(Nc1cccc(C(F)(F)F)c1)Nn1cnnc1 | 1.98 | – | –
7 | COc1ccc(NC(=O)/C(C#N)=C/c2ccc(OCc3ccccc3F)cc2)cc1 | 0.856 | 0.116 µM [falling, full curve] | –
8 | COc1ccc(-c2ccc(-c3nc4c(c(=O)[nH]c(=O)n4Cc4ccccc4)n3C)o2)c([N+](=O)[O-])c1 | 7.65 | 6.51 µM [rising, single point] | –
9 | COc1ccc(S(=O)(=O)N2CCCOC2CNC(=O)C(=O)NCc2ccccc2F)cc1C (stereo unspecified) | 21.8 | 32.6 µM [rising, single point] | –
10 | Cc1cccc(N2CCN(S(=O)(=O)c3ccc4c(c3)C(C)(C)C(=O)N4C)CC2C)c1 (stereo unspecified) | -12.2 | 29.1 µM [falling, single point] | –
11 | COc1ccc(CCN(Cc2cc3cc4c(cc3[nH]c2=O)OCO4)C(C)=O)cc1OC | -10.4 | 0.58 µM [rising, single point] | –
12 | CCCn1c(SCC(=O)NCc2ccccc2)n[nH]c1=O | -34.9 | 0.092 µM [falling, full curve] | 0.0731 µM [falling, full curve]
13 | Cc1coc2cc3oc(=O)c(CCC(=O)N4CCC(C(=O)O)(c5ccccc5)CC4)c(C)c3cc12 | 24.6 | – | –
14 | CCCS(=O)(=O)C(=C(Nc1ccc(OC)cc1)Nc1ccc(OC)cc1)S(=O)(=O)CCC | -46.2 | 29.1 µM [falling, single point] | 4.11 µM [falling, full curve, poor fit]
15 | C=CCOc1ccc(/C=C2\SC(=S)N(NS(=O)(=O)c3ccc(C)cc3)C2=O)cc1 | -38.5 | 8.2 µM [falling, partial curve] | 16.4 µM [falling, partial curve]
16 | COC(=O)c1ccc(NC(=O)CN(c2ccc(OC)cc2)S(C)(=O)=O)cc1 | 4.65 | 29.1 µM [rising, single point] | –
17 | CC(C)C(=O)c1ccc(O)c(O)c1 | -14.5 | 0.517 µM [falling, full curve, poor fit] | –
18 | CC1CCCC(C)N1C(=O)COC(=O)CCc1nc2ccccc2c(=O)[nH]1 (stereo unspecified) | -66.7 | – | 10.3 µM [falling, partial curve]
19 | COc1cc(Cl)ccc1NC(=O)COc1ccccc1C(=O)NN | – | 6.51 µM [rising, single point] | 5.8 µM [rising, single point]
20 | CC(=O)NC(CC(=O)N1CCN(C(C)=O)CC1)c1ccccc1 (stereo unspecified) | 10.4 | 8.2 µM [rising, partial curve] | –

Complete entries from above. Order of values: cell number change [%]	AC50 [1]	AC50 [2]
CCCn1c(SCC(=O)NCc2ccccc2)n[nH]c1=O is listed with -34.9	0.092 µM [falling, full curve]	0.0731 µM [falling, full curve]
COc1cc(Cl)ccc1NC(=O)COc1ccccc1C(=O)NN is listed with –	6.51 µM [rising, single point]	5.8 µM [rising, single point]

Carrying on.

Row | SMILES | cell number change [%] | AC50 [1] | AC50 [2]
21 | COCCOC(=O)C1=C(C)NC2=C(C(=O)CC(C)(C)C2)C1c1cc2c(cc1Br)OCO2 (stereo unspecified) | 31.6 | – | 6.51 µM [rising, single point]
22 | Cc1ccc(CNC(=O)c2cccc3c2C(=O)c2ccc(N4CCC(C)CC4)cc2S3(=O)=O)cc1 | -15 | 2.31 µM [falling, single point] | –
23 | CNc1nnc(-c2ccc(C)cc2)c2ccccc12 | – | 6.51 µM [rising, single point] | –
24 | Cc1ccc(NC(=O)C/C(N)=N/OC(=O)Nc2ccc(C)c(Cl)c2)cc1 | -5.32 | 1.46 µM [falling, partial curve] | –
25 | Cc1nc2cc3ccccc3cc2c(=O)[nH]1 | 0.7 | – | 0.651 µM [falling, full curve, poor fit]
26 | O=C(N/C(=C/c1ccco1)C(=O)N1CCOCC1)c1cccs1 | -41 | 10.3 µM [falling, partial curve, poor fit] | 29.1 µM [falling, single point]
27 | Cc1[nH]c2ccccc2c1/C=N/NC(=O)c1cccc([N+](=O)[O-])c1 | 22.5 | 6.51 µM [rising, partial curve, poor fit] | 4.11 µM [rising, single point]
28 | CCCOc1c(Cl)cc(/C=N/O)cc1OCC | 10.4 | – | –
29 | CCCCC(=O)NCc1ccc(Cl)cc1 | 46 | 29.1 µM [rising, single point] | –
30 | COc1cc(/C=C/CO)cc(OC)c1OC/C=C(\C)CCC=C(C)C | -40.7 | – | 16.4 µM [falling, single point]
31 | CS(=O)(=O)N(CC(=O)N1CCCCCC1)c1cccc(Cl)c1Cl | -24.1 | – | –
32 | O=C1COc2ccc(C(=O)COC(=O)c3c(F)cccc3Cl)cc2N1 | -31.3 | 10.3 µM [falling, partial curve, poor fit] | 2.59 µM [falling, full curve]
33 | Cc1noc(C)c1C(=O)Nc1cccc(S(=O)(=O)N2CCOCC2)c1 | -2.39 | – | –
34 | O=C(Nc1ccc(N2CCN(C(=O)c3ccc(Cl)cc3)CC2)cc1)c1ccc([N+](=O)[O-])o1 | -25.8 | – | –
35 | CCCCCCCNC(=O)C1(CC2CC(c3cccc(Br)c3)=NO2)CCN(C(=O)C2CCCC2)CC1 (stereo unspecified) | -23 | 6.51 µM [falling, single point] | –
36 | Cc1cc(=O)[nH]c(N/N=C/c2ccc(F)cc2)n1 | -5.67 | 0.00461 µM [falling, full curve, poor fit] | –
37 | COc1nc(N2CCOCC2)nc(C)c1[N+](=O)[O-] | 55.4 | 29.1 µM [rising, single point] | 18.4 µM [rising, single point]
38 | CCc1nccn1S(=O)(=O)c1ccc(Br)cc1Br | 28.5 | 23.1 µM [falling, single point] | 3.26 µM [rising, full curve, poor fit]
39 | CCn1c(CNC(=O)c2ccco2)nnc1SCC(=O)c1ccc(F)cc1 | -8.57 | 29.1 µM [rising, partial curve] | 5.17 µM [falling, partial curve, poor fit]
40 | CC1CCCC(C)N1C(=O)CSc1nccc(=O)[nH]1 (stereo unspecified) | 16.1 | – | –

Row | SMILES | cell number change [%] | AC50 [1] | AC50 [2]
41 | O=C(NCc1ccccc1)C1=C[C@@H](c2ccc(C(F)(F)F)cc2)C[C@@H](OCc2ccc(CO)cc2)O1 | -14 | 0.651 µM [rising, full curve, poor fit] | –
42 | CC(C)N(Cc1nc(-c2ccccc2)no1)C(=O)C(Cl)(Cl)Cl | 103 | – | 23.1 µM [rising, partial curve]
43 | O=C(c1ccc(Cl)c(NC2=NC3CS(=O)(=O)CC3S2)c1)N1CCN(c2ccc(F)cc2)CC1 (stereo unspecified) | – | 29.1 µM [rising, single point] | –
44 | COc1ccc(NS(=O)(=O)c2cccc(C(=O)NNC(=O)CNC(=O)c3ccccc3F)c2)cc1 | -8.23 | 7.31 µM [rising, partial curve] | –
45 | CN1CCC(NC(=O)c2cc(-c3cccc(Br)c3)nc3ccccc23)CC1 | -7.12 | – | –
46 | Cc1ccc(CC(=O)OC(C)C(=O)NC2CCCCC2C)cc1C (stereo unspecified) | 3.71 | 0.00461 µM [falling, full curve, poor fit] | –
47 | C=CCc1cc(OC)ccc1OCCON1C(=O)CCC1=O | 4.65 | 13 µM [rising, single point] | –
48 | CCc1nnc(NC(=O)CSc2nnc(-c3ccccc3O)n2CC)s1 | 56.1 | 0.651 µM [rising, single point] | 14.6 µM [rising, single point]
49 | CCn1ncc(C2=NOC(C(=O)Nc3ccc4c(c3)OCO4)C2)c1C (stereo unspecified) | 11.2 | 1.03 µM [rising, single point] | 0.731 µM [rising, single point]
50 | CC(C)c1ccc(-c2nc(N3CCOCC3)[nH]c(=O)c2C#N)cc1 | -14.8 | – | –
51 | COc1cccc2c3c(c(=O)[nH]c12)CCC(C)(C)O3 | 37.4 | 2.59 µM [rising, full curve] | 1.03 µM [rising, full curve]
52 | O=C(Cc1ccccc1)NNC1CC(=O)N(c2ccc(Br)cc2)C1=O (stereo unspecified) | -30.1 | 4.61 µM [falling, full curve] | –
53 | COc1ccc(-n2nnnc2SCC(=O)c2ccc(OC)c(OC)c2)cc1 | -0.388 | 2.59 µM [rising, partial curve] | –
54 | O=C(CCCN1C(=O)/C(=C\c2ccco2)SC1=S)Nc1ccc2ccccc2c1 | -27.1 | 9.2 µM [falling, partial curve, poor fit] | –
55 | N/C(Cc1cccs1)=N\OC(=O)COc1ccc(Br)cc1 | 29.6 | 29.1 µM [rising, single point] | –
56 | CC[C@H](C)[C@@H](C(=O)NCCCCCCCCCCC(=O)N1CCN(C(=O)OC(C)(C)C)CC1)n1cc(CCCCCNC(=O)OC(C)(C)C)nn1 | -37.9 | 29.1 µM [falling, single point] | 10.3 µM [falling, partial curve]
57 | CCOC(=O)c1nc(C)n(-c2cc(Cl)ccc2Cl)n1 | 22.8 | 6.51 µM [falling, single point] | –
58 | COc1ccc(-c2cc3ccc(OCc4nn[nH]n4)cc3oc2=O)cc1OC | -9.91 | 0.103 µM [falling, partial curve, poor fit] | –
59 | CCCCCCCN1C/C=C\C(c2ccc(OC)cc2)N(Cc2ccc(F)cc2)C(=O)[C@H]1Cc1ccccc1 (stereo partly specified) | 19.1 | 10.3 µM [rising, partial curve] | –
